{"source": "PubChem BioAssay AID1259308 (NCATS, 2017)", "screen": "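Genes whose loss raises luciferase production in HEK293 cells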 (primary screen)", "cells": "human HEK293 embryonic kidney cells stably expressing firefly luciferase (HEK-CMV-Luc2-Hygro)", "reagent": "single siRNA against human genes, 0.8 pmol siRNA per well", "time to read-out": "72 h", "measured": "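Reporter luminescence and viable-cell signal on separate replicate plates, given as percent of non-targeting control and median/MAD z-scores, plus per-cell luciferase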", "direction": "total luciferase, z-score: higher = more reporter protein produced", "call rule": "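Active when the median/MAD z-score for overall luciferase is greater than 3; a gene was taken forward for validation with new siRNAs if at least two of its three siRNAs passed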", "meaning of the calls": "active = raised luciferase; inactive = no rise", "note": "In all, the deposit lists about 59,000 reagents; this is a part drawn at random. About 1,510 of them (2.6%) were called active. 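Calls use total luciferase alone and ignore viability, so some active siRNAs may act by altering cell number.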 A number with no mark means an inactive call. Reagents against one gene are numbered here. Further read-outs or replicates are left out here."}
{"target":"LINC01545","reagent no.":1,"total luciferase, z-score":-1.9}
{"target":"LINC01545","reagent no.":2,"total luciferase, z-score":-0.781}
{"target":"LINC01545","reagent no.":3,"total luciferase, z-score":-0.759}
{"target":"FABP5P9","reagent no.":1,"total luciferase, z-score":0.655}
{"target":"FABP5P9","reagent no.":2,"total luciferase, z-score":1.24}
{"target":"FABP5P9","reagent no.":3,"total luciferase, z-score":0.82}
{"target":"OR2A7","reagent no.":1,"total luciferase, z-score":0.23}
{"target":"OR2A7","reagent no.":2,"total luciferase, z-score":1.86}
{"target":"OR2A7","reagent no.":3,"total luciferase, z-score":1.78}
{"target":"PTP4A1","reagent no.":1,"total luciferase, z-score":-0.0295}
{"target":"PTP4A1","reagent no.":2,"total luciferase, z-score":-0.866}
{"target":"PTP4A1","reagent no.":3,"total luciferase, z-score":-2.4}
{"target":"LOC646471","reagent no.":1,"total luciferase, z-score":-0.254}
{"target":"LOC646471","reagent no.":2,"total luciferase, z-score":1.09}
{"target":"LOC646471","reagent no.":3,"total luciferase, z-score":"5.7 (active)"}
{"target":"FLG2","reagent no.":1,"total luciferase, z-score":-0.232}
{"target":"FLG2","reagent no.":2,"total luciferase, z-score":0.887}
{"target":"FLG2","reagent no.":3,"total luciferase, z-score":-1.25}
{"target":"EVA1B","reagent no.":1,"total luciferase, z-score":"4.03 (active)"}
{"target":"EVA1B","reagent no.":2,"total luciferase, z-score":-1.33}
{"target":"EVA1B","reagent no.":3,"total luciferase, z-score":2.03}
{"target":"C15orf61","reagent no.":1,"total luciferase, z-score":1.15}
{"target":"C15orf61","reagent no.":2,"total luciferase, z-score":-0.362}
{"target":"C15orf61","reagent no.":3,"total luciferase, z-score":-1.12}
{"target":"BRD3","reagent no.":1,"total luciferase, z-score":-0.692}
{"target":"BRD3","reagent no.":2,"total luciferase, z-score":-0.131}
{"target":"BRD3","reagent no.":3,"total luciferase, z-score":0.656}
{"target":"LOC732226 (retired record)","reagent no.":1,"total luciferase, z-score":0.751}
{"target":"LOC732226 (retired record)","reagent no.":2,"total luciferase, z-score":2.75}
{"target":"LOC732226 (retired record)","reagent no.":3,"total luciferase, z-score":-0.321}
{"target":"HHATL","reagent no.":1,"total luciferase, z-score":-0.202}
{"target":"HHATL","reagent no.":2,"total luciferase, z-score":0.849}
{"target":"HHATL","reagent no.":3,"total luciferase, z-score":1.09}
{"target":"MAB21L3","reagent no.":1,"total luciferase, z-score":-1.09}
{"target":"MAB21L3","reagent no.":2,"total luciferase, z-score":0.519}
{"target":"MAB21L3","reagent no.":3,"total luciferase, z-score":0.217}
{"target":"PLAC8","reagent no.":1,"total luciferase, z-score":2.04}
{"target":"PLAC8","reagent no.":2,"total luciferase, z-score":0.507}
{"target":"PLAC8","reagent no.":3,"total luciferase, z-score":-1.33}
{"target":"NKAPL","reagent no.":1,"total luciferase, z-score":1.33}
{"target":"NKAPL","reagent no.":2,"total luciferase, z-score":-1.53}
{"target":"NKAPL","reagent no.":3,"total luciferase, z-score":0.151}

Entries above whose target name starts with B or b (3):
{"target":"BRD3","reagent no.":1,"total luciferase, z-score":-0.692}
{"target":"BRD3","reagent no.":2,"total luciferase, z-score":-0.131}
{"target":"BRD3","reagent no.":3,"total luciferase, z-score":0.656}
